PubChem BioAssay AID1259254, NCATS | 2017
Purpose: 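Gene knock-downs that lead to re-replication, shown by excess G2 DNA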 (primary screen). System: human HCT116 colorectal cancer cells. Knock-down reagent: single siRNA against human genes. Timing: 3 days. Measurement: 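Imaged Hoechst DNA stain sorts each cell into a cycle phase by DNA amount; per plate, G2 fraction set to 0% for non-targeting and 100% for GMNN siRNA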. Scale: G2 robust z-score: higher = more G2 cells, more excess DNA replication. Call rule: 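An siRNA counts as active if its G2 robust z-score lies at least 5 MADs above the screen median; here such calls match roughly 38% of GMNN control or more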.
Shown is a random part of about 59,000 reagents tested. About 1,550 of all reagents (2.6%) were called active. 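G2 share is only a proxy for re-replication; each gene was hit by three separate siRNAs, and active genes were retested.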 The numbers tell different reagents against one gene apart. Further read-outs or replicates are left out here. No sequences are given here. Not stated in the record: the amount of reagent.

NELFE #1: G2 robust z-score = -0.119; Outcome = inactive
NELFE #2: G2 robust z-score = 2.71; Outcome = inactive
NELFE #3: G2 robust z-score = 3.02; Outcome = inactive
MAST2 #1: G2 robust z-score = -0.961; Outcome = inactive
MAST2 #2: G2 robust z-score = -1.52; Outcome = inactive
MAST2 #3: G2 robust z-score = 0.0111; Outcome = inactive
ZDHHC14 #1: G2 robust z-score = -0.828; Outcome = inactive
ZDHHC14 #2: G2 robust z-score = -0.947; Outcome = inactive
ZDHHC14 #3: G2 robust z-score = 2.69; Outcome = inactive
RUSC1-AS1 #1: G2 robust z-score = 1.7; Outcome = inactive
RUSC1-AS1 #2: G2 robust z-score = -0.451; Outcome = inactive
RUSC1-AS1 #3: G2 robust z-score = 1.76; Outcome = inactive
CIMAP1D #1: G2 robust z-score = -1.02; Outcome = inactive
CIMAP1D #2: G2 robust z-score = 1.07; Outcome = inactive
CIMAP1D #3: G2 robust z-score = 2.6; Outcome = inactive
TTC7B #1: G2 robust z-score = -0.252; Outcome = inactive
TTC7B #2: G2 robust z-score = -0.824; Outcome = inactive
TTC7B #3: G2 robust z-score = 0.547; Outcome = inactive
GLRA2 #1: G2 robust z-score = 0.366; Outcome = inactive
GLRA2 #2: G2 robust z-score = 0.129; Outcome = inactive
GLRA2 #3: G2 robust z-score = 0.947; Outcome = inactive
RAPGEF2 #1: G2 robust z-score = 0.1; Outcome = inactive
RAPGEF2 #2: G2 robust z-score = 2.33; Outcome = inactive
RAPGEF2 #3: G2 robust z-score = -0.0458; Outcome = inactive
KLK11 #1: G2 robust z-score = -0.182; Outcome = inactive
KLK11 #2: G2 robust z-score = 0.879; Outcome = inactive
KLK11 #3: G2 robust z-score = -0.0142; Outcome = inactive
LINC00921 #1: G2 robust z-score = 0.477; Outcome = inactive
LINC00921 #2: G2 robust z-score = -0.541; Outcome = inactive
LINC00921 #3: G2 robust z-score = 0.212; Outcome = inactive

Ordered by “G2 robust z-score” (descending): some entries from above
NELFE #3: G2 robust z-score = 3.02; Outcome = inactive
NELFE #2: G2 robust z-score = 2.71; Outcome = inactive
NELFE #1: G2 robust z-score = -0.119; Outcome = inactive
MAST2 #1: G2 robust z-score = -0.961; Outcome = inactive
